Data on two substances can be found in publication PMC11282859.

By UniProt entry, the sequences of proteins in these tests, tags left out.
UniProt Q86WV6: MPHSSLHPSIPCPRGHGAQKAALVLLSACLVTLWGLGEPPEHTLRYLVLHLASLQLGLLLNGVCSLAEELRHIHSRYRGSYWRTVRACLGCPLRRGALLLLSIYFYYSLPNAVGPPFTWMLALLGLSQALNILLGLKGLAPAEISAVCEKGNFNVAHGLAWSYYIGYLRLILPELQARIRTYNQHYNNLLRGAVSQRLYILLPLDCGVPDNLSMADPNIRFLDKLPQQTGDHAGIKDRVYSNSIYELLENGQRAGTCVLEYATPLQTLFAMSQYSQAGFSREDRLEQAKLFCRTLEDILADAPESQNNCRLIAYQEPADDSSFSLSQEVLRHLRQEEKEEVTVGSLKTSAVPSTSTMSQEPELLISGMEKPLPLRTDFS
UniProt P23443: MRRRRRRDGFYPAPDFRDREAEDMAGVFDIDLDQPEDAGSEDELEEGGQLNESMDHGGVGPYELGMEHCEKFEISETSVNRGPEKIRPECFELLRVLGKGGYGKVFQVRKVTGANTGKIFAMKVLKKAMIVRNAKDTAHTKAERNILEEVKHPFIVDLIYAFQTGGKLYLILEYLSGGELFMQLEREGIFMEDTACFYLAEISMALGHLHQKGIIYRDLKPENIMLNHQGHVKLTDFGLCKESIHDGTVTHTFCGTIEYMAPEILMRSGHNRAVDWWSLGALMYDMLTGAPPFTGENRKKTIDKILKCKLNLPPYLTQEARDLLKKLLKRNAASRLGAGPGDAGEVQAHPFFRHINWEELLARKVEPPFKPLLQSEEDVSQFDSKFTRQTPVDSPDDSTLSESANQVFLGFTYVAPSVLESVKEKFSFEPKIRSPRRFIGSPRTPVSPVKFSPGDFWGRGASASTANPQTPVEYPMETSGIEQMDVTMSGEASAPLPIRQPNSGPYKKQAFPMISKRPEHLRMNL

Results are given in words; binding and its absence hold for the method and conditions named. Binding seen in cells or lysates may run through a third protein. Some results given as binding are weak or reduced against the parent protein; the word gives no strength.

The target in assay [1] is T1, Membrane-associated RING-CH-1 (MARCH1) (human (cDNA from HEK293T)) (UniProt Q8TCQ1).
T1 sequence: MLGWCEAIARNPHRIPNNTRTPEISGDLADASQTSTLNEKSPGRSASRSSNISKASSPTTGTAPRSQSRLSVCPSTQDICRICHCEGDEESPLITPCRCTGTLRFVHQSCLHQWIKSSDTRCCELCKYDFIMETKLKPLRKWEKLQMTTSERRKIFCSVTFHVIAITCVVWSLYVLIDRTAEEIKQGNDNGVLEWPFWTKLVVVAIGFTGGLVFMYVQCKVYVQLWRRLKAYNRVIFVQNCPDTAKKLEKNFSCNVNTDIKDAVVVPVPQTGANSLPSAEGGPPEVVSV
The assay is described as follows: co-IP; HEK293T cells co-transfected for 24 h (STING co-expressed in Fig. 4C); NETN lysis buffer (20 mM Tris pH 8.0, 150 mM NaCl, 0.5% NP-40, 1 mM EDTA); flag beads 6 h at 4 C; Western blot; cell treatments by panel: 10 uM MG132 for 12 h, serum starvation 16 h then 100 nM insulin 15 min, GSK8612 2 uM, Torin 1 100 nM, H151 1 uM for 6 h, MARCH1 overexpression, shTBK1. On the technique in general: A western blot detects proteins with antibodies after separation by electrophoresis.

Assay [2] deals with T2, TANK-binding kinase 1 (TBK1) (human (cDNA from HEK293T)) (UniProt Q9UHD2).
T2 sequence: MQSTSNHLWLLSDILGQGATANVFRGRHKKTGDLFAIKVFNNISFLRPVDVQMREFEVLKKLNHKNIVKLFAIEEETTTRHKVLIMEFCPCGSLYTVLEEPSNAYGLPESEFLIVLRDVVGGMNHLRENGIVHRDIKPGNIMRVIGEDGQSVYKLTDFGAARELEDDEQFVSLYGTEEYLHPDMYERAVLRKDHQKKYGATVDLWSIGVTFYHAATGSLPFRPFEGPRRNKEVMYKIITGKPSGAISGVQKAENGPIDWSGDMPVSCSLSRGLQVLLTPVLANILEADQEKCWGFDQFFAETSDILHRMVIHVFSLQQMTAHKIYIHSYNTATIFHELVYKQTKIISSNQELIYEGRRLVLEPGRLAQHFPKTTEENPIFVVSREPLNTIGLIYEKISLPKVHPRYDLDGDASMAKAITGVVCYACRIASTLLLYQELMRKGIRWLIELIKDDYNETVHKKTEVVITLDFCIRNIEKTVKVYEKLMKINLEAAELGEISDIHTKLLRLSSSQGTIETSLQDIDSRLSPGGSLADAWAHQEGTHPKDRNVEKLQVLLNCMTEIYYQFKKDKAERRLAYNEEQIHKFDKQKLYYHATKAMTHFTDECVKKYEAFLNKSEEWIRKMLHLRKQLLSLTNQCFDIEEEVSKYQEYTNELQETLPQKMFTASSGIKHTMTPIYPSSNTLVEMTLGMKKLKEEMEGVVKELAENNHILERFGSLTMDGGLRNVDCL
The description is as above.

On to “STING-myc (stimulator of IFN genes) (from UniProt Q86WV6 1-379)”, for which the binding entry in assay [1] is “binds”.

For “p70S6 Kinase 1 (S6K1) (from UniProt P23443 1-525) (enzyme)”, the binding entry in assay [2] is recorded as “binds”.
